Results are given in words; binding and its absence hold for the method and conditions named. Binding seen in cells or lysates may run through a third protein. Some results given as binding are weak or reduced against the parent protein; the word gives no strength. Sequences can lack the tags named with a protein.

The target of this experiment is T1, MMS19-Myc (Arabidopsis thaliana) (UniProt Q0WVF8).
T1 sequence: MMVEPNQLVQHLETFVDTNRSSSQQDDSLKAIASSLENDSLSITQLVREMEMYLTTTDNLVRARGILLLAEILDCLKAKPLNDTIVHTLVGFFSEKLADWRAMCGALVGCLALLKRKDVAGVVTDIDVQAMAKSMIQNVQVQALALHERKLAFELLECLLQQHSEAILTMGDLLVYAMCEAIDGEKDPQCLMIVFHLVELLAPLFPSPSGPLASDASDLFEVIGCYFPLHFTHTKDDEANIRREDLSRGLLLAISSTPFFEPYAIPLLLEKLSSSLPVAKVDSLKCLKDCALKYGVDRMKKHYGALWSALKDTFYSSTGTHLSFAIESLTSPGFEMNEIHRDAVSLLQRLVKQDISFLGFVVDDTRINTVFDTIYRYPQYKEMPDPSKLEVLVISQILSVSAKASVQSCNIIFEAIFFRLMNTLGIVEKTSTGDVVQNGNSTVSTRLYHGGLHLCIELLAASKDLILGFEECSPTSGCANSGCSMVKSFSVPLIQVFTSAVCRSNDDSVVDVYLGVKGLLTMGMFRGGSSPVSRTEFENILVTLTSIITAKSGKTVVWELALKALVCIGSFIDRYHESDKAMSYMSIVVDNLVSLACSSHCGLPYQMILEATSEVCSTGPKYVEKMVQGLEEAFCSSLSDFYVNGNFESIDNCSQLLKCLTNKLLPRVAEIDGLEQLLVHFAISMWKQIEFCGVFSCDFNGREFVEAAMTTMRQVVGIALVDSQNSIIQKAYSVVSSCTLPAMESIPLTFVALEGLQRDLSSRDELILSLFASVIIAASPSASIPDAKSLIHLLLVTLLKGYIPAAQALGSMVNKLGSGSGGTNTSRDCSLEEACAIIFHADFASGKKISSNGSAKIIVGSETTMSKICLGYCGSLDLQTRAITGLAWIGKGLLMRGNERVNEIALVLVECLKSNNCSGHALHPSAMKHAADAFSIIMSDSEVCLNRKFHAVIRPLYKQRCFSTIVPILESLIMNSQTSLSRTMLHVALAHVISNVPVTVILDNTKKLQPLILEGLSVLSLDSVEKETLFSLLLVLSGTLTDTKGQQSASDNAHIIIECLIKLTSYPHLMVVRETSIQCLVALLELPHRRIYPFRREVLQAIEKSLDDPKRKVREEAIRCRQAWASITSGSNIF
The experiment is described as follows: co-IP; total protein extracts of T2 transgenic plants carrying two tagged transgenes, antibody-conjugated beads, washed 5 or 6 times with lysis buffer, Western blotting. A general note: Immunoblotting shows a protein as a band on a membrane.

B1: CIA2-Flag (protein, UniProt Q9C9G6 1-157)
chain: MVSGLINENPIIYPKKERRLRTDTSITDELTPEPIDQLEIFDHIRDIKDPEHPNTLEDLRVVTEDSVEVDDENSYVRVTFTPTVEHCSMATVIGLCVRVKLLRSLPSRYKIDIRVAPGSHATEDALNKQLNDKERVAAALENPNLVEMVDECLPSEE
For the molecule B1, the binding entry was “binds”.

B2: CIA1-Flag (protein, UniProt O80990 1-352)
chain: MDLMEKNLELVEIQKLEGHTDRVWSVAWNPVSSHADGVSPILASCSGDNTVRIWEQSSLSRSWTCKTVLEETHTRTVRSCAWSPSGQLLATASFDGTTGIWKNYGSEFECISTLEGHENEVKSVSWNASGSCLATCSRDKSVWIWEVLEGNEYDCAAVLTGHTQDVKMVQWHPTMDVLFSCSYDNTIKVWWSEDDDGEYQCVQTLGESNNGHSSTVWSISFNAAGDKMVTCSDDLTLKIWGTDIAKMQSGEEYAPWIHLCTLSGYHDRTIYSAHWSRDDIIASGAGDNAIRLFVDSKHDSVDGPSYNLLLKKNKAHENDVNSVQWSPGEGNRLLASASDDGMVKIWQLATKP
B2: the binding entry was “binds”.

Values taken from paper PMC4459967.
